{"sequences": {"note": "Amino acid sequences for entries named in this document (tags omitted). A change or cut given only in a name is not applied to a line headed by its entry.", "UniProt O60602": "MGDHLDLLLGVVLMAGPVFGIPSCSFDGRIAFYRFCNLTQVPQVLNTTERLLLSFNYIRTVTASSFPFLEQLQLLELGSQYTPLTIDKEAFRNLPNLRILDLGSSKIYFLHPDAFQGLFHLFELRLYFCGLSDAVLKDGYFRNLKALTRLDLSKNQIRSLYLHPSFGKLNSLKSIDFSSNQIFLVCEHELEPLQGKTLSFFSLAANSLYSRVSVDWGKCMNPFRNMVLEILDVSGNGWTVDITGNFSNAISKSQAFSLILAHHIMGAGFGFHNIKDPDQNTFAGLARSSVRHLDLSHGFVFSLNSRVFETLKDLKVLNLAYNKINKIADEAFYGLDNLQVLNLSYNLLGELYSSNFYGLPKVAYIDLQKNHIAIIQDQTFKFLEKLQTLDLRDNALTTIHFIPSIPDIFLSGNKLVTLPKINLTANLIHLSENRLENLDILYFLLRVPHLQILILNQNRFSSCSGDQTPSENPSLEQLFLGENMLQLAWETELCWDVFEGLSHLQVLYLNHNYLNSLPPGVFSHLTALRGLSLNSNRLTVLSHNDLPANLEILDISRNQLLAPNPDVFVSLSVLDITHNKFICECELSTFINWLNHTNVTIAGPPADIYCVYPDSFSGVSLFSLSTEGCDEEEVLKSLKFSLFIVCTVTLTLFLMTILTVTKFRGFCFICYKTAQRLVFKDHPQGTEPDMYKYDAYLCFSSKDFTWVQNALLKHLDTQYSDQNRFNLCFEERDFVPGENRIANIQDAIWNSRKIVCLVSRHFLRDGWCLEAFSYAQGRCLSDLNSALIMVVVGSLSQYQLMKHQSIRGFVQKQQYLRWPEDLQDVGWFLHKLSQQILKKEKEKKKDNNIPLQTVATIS"}, "source": "patent US20260109755A1", "key": {"[1]": {"biological_target": "T1, SH3YL1 of mouse mesangial cell line MES13 (cell supernatant and cell lysate) (mouse) (UniProt O08641)", "T1 sequence (looked up)": "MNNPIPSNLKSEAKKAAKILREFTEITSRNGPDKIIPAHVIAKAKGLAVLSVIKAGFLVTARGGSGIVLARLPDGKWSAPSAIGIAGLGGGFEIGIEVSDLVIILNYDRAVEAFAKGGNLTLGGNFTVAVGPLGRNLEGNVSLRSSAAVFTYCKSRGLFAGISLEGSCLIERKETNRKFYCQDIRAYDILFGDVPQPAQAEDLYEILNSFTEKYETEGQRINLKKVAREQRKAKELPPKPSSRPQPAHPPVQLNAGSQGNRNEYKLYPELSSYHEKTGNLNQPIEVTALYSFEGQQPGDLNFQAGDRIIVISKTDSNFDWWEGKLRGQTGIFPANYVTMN", "assay": "immunoprecipitation of MES13 supernatants and lysates with TLR5-ecto-Fc, immunoblot for SH3YL1"}, "[2]": {"biological_target": "T1, SH3YL1 of mouse mesangial cell line MES13 (cell supernatant and cell lysate) (mouse)", "assay": "immunoprecipitation with hTLR5-FC (FIG. 3)"}}, "note": "These are yes or no findings as the source states them, for the method shown. Some binding calls cover weakened binding; strength is not graded here.", "data": [{"substance": "Soluble ectodomain of human TLR5 fused to an IgG1 Fc domain (hTLR5-FC; Invivogen) (from UniProt O60602 21-639) (Fc fusion)", "values": [{"measurement": "binding", "setting": "[1]", "value": "binds"}, {"measurement": "binding", "setting": "[2]", "value": "binds"}]}]}
